Experimental findings from paper PMC11915848 are described below.

Results are given in words; binding and its absence hold for the method and conditions named. In cells and extracts the contact can be indirect. Binding calls can cover weak binding; strength is not graded here. Where a sequence is shown, tags or fusion partners need not be part of it.

This assay deals with T1, STT3B-3xFlag (UniProt Q8TCJ2).
T1 sequence: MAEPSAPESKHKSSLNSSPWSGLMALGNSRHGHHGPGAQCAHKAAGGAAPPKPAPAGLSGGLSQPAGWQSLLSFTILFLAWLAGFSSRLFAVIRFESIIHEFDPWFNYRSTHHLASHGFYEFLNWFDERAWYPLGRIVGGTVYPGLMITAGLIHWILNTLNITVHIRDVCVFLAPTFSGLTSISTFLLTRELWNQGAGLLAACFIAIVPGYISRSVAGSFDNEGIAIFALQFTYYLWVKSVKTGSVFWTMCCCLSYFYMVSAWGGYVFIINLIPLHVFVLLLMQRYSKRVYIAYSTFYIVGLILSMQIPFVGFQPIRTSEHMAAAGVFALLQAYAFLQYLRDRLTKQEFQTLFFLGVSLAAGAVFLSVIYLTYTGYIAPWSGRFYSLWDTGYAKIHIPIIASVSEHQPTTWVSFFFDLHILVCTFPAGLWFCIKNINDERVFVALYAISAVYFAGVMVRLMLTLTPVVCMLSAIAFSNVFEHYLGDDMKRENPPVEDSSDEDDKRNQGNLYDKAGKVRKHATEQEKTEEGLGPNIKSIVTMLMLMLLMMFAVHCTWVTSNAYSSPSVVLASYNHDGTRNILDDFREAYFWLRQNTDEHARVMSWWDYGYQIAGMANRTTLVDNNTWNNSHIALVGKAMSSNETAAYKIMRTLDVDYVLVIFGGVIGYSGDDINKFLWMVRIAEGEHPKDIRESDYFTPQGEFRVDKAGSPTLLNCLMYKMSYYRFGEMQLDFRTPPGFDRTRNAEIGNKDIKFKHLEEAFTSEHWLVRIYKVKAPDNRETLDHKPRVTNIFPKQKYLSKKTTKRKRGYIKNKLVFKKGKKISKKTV
The assay can be described thus: co-IP; HEK293T and LLC-PK1 cells co-transfected with STT3B-Flag (or pCMV-Flag) and PEDV S-His for 24 hours; lysed in RIPA buffer with PMSF; lysates incubated with anti-Flag magnetic beads, washed with PBST, eluted with 50 mM glycine pH 2.8; blotted with Flag and His antibodies.

Turning to “PEDV spike (S) protein, His-tagged (porcine epidemic diarrhea virus)”, the binding result is on record as “binds”.
